Assay [1] addresses T1, ADP-ribosylation factor collaborator (CARF) (mouse (endogenous in testis)) (UniProt Q8BI72).
T1 sequence: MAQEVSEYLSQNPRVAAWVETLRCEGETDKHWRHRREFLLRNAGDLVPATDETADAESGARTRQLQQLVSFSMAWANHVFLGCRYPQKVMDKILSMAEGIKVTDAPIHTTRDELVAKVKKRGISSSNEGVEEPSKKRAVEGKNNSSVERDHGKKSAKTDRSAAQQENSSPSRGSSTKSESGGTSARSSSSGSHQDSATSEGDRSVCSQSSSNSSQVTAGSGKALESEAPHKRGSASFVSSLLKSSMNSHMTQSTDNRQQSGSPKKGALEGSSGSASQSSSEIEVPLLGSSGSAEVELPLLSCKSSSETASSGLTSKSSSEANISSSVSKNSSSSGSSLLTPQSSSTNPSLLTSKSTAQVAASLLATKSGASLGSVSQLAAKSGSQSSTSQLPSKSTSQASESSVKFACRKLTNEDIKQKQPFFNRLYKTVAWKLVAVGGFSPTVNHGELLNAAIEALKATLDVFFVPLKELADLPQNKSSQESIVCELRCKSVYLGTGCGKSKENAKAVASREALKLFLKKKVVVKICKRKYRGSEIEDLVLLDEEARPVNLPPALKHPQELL
The assay can be described thus: co-IP; mouse testis protein extracts; IP with antibody to CARF or to PABPC1, IgG as control; SDS-PAGE and western blot. Background: Immunoblotting shows a protein as a band on a membrane.

The chains behind the UniProt entries cited, without tags or fusion partners.
UniProt P29341: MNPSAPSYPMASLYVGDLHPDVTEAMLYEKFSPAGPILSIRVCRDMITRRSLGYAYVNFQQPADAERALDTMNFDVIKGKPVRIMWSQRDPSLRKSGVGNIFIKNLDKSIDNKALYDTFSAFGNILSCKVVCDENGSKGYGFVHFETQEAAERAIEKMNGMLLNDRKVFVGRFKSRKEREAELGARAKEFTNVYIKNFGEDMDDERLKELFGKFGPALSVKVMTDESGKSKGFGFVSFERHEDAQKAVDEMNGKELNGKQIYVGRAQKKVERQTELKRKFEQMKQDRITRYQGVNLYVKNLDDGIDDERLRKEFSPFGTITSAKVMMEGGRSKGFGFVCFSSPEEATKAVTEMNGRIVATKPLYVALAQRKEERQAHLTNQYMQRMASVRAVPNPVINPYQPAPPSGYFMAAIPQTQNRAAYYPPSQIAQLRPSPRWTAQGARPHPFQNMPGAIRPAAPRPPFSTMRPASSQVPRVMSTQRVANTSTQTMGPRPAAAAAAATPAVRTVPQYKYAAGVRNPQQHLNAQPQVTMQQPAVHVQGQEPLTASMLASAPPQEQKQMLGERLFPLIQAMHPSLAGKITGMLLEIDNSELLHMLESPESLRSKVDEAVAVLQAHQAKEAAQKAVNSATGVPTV

In assay [2] the target is poly-A binding protein cytoplasmic 1 (PABPC1) (mouse (endogenous in testis)) (UniProt P29341). The assay is described as above.

No constants are given. Whether binding was seen depends on the method and setting. Binding seen in cells or lysates may run through a third protein. Some binding calls cover weakened binding; strength is not graded here.

As for “poly-A binding protein cytoplasmic 1 (PABPC1) (from UniProt P29341 1-636)”, the binding result in assay [1] is reported as “binds”.

B1: ADP-ribosylation factor collaborator (CARF) (protein, UniProt Q8BI72 1-563)
chain: MAQEVSEYLSQNPRVAAWVETLRCEGETDKHWRHRREFLLRNAGDLVPATDETADAESGARTRQLQQLVSFSMAWANHVFLGCRYPQKVMDKILSMAEGIKVTDAPIHTTRDELVAKVKKRGISSSNEGVEEPSKKRAVEGKNNSSVERDHGKKSAKTDRSAAQQENSSPSRGSSTKSESGGTSARSSSSGSHQDSATSEGDRSVCSQSSSNSSQVTAGSGKALESEAPHKRGSASFVSSLLKSSMNSHMTQSTDNRQQSGSPKKGALEGSSGSASQSSSEIEVPLLGSSGSAEVELPLLSCKSSSETASSGLTSKSSSEANISSSVSKNSSSSGSSLLTPQSSSTNPSLLTSKSTAQVAASLLATKSGASLGSVSQLAAKSGSQSSTSQLPSKSTSQASESSVKFACRKLTNEDIKQKQPFFNRLYKTVAWKLVAVGGFSPTVNHGELLNAAIEALKATLDVFFVPLKELADLPQNKSSQESIVCELRCKSVYLGTGCGKSKENAKAVASREALKLFLKKKVVVKICKRKYRGSEIEDLVLLDEEARPVNLPPALKHPQELL
On to B1, for which, in assay [2], the binding result is recorded as “binds”.

The record behind these values is paper PMC12040762.
